The values below come from article PMC7819943, “Rice protein-binding microarrays: a tool to detect cis-acting elements near promoter regions in rice”.

Chains of the proteins cited; added tags and fusions are not shown.
UniProt Q0JBA9, entry or part of it: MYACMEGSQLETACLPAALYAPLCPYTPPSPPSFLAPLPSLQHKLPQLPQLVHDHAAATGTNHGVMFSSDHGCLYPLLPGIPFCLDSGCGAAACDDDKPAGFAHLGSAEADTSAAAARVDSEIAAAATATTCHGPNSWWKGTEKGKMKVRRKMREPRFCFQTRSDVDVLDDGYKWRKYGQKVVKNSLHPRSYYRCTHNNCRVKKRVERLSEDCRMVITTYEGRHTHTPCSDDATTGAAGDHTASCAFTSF

The list shows a part of the results.

In this assay the target is OsWRKY34 (Oryza sativa, UniProt Q0JBA9 1-250). In words: protein-binding microarray (RPBM); PBS, 2% BSA, 51.3 ng/ul salmon testes DNA, 50 uM zinc acetate, 200 nM TF, 25 C, 1 h; high values mean tight binding. As to conditions: protein: recombinant; tags: N-terminal polyhistidine and DsRed monomer fusion (pET32a); label: CyDye5-dUTP incorporated in the synthesized complementary strand; 3' TTTTT single-stranded linker to array surface; dsDNA, one strand shown. The gist of the method:
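An Axon 4000B scanner gave the binding signal as per-feature fluorescence intensity in arbitrary units. This followed washing of a custom Agilent array that had been incubated for 1 h at 25 °C with 200 nM protein in PBS, 2% BSA, salmon testes DNA and 50 µM zinc acetate. The proteins were transcription factors fused at the N-terminus to polyhistidine and DsRed, expressed in E. coli BL21-CodonPlus and purified on Ni–NTA.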
For the sequence “GAGTTGTGTGTATGGACACGTGGTGGGCCAGGGGAGGGGACGGAGTCACCTAGTGCAG”, the binding signal is 8660 fluorescence intensity (a.u.).

“TGCTAGCTCGTTACCCTATCCCTCTTTTAGCATTTACCATCGGAGTCACCTAGTGCAG”: the binding signal is 9700 fluorescence intensity (a.u.).

As for “GACCGACTTAACCCAAACTTACCTCGGCGCCGGCGAGCTTCGGAGTCACCTAGTGCAG”, the binding signal is 8580 fluorescence intensity (a.u.).

For the sequence “GATTTTAGCTTTTATACCTGTTCGAATATCTTCTTAAAACCGGAGTCACCTAGTGCAG”, the binding signal was 9100 fluorescence intensity (a.u.).

For the sequence “CCGGATCACTCTCTCCACTCTCCGCTCCCCACCGCGCGAGCGGAGTCACCTAGTGCAG”, the binding signal is 9660 fluorescence intensity (a.u.).

With “GTAAGCTTATGGTTTAGTCGTAGCTATTTACTACTTTCACCGGAGTCACCTAGTGCAG”, the binding signal is 8760 fluorescence intensity (a.u.).

In the case of “TGCATGTATTTTTGGCCGTGTATGCATATATGTATATGCGCGGAGTCACCTAGTGCAG”, the binding signal was 8220 fluorescence intensity (a.u.).

Turning to “TTTTTGAACGGTGCGTTTCGCTTTTCTCTCCCCACATTGACGGAGTCACCTAGTGCAG”, the binding signal was 8050 fluorescence intensity (a.u.).

For the sequence “ATACTCTTATTAGGATCCATATGTCACATTCTTAAATTTGCGGAGTCACCTAGTGCAG”, the binding signal was 8490 fluorescence intensity (a.u.).

In the case of “CTTTTCACGTTTGGGCTTCACAGCATTCTAGCACCCCTGTCGGAGTCACCTAGTGCAG”, the binding signal is 9350 fluorescence intensity (a.u.).

Regarding “GTTTTATTGGTCGATCGCTGCGTCGTGGTTGTGTCTCGTGCGGAGTCACCTAGTGCAG”, the binding signal was 8880 fluorescence intensity (a.u.).

Turning to “ACTATGGGCTTTTGCATCAACAATTGCGAATTTTTTGTATCGGAGTCACCTAGTGCAG”, the binding signal is 9280 fluorescence intensity (a.u.).

For “CGTCCACAACCCCGACATCGCCCTCGTCCAGGCCCGCTGGCGGAGTCACCTAGTGCAG”, the binding signal is 8080 fluorescence intensity (a.u.).

Turning to “TGAGTTATTCGTTCCGCTTTCAATTTTTCATTGCCAGAACCGGAGTCACCTAGTGCAG”, the binding signal was 8070 fluorescence intensity (a.u.).

As to “AGATGTAGTTCACTTGGCTTTCTGGTGGATTTTTCTTAATCGGAGTCACCTAGTGCAG”, the binding signal is 9080 fluorescence intensity (a.u.).

Take “TCTCTCGTTCATCCATCCAGCGGCACACACACCAAGCTAGCGGAGTCACCTAGTGCAG”: the binding signal is 8090 fluorescence intensity (a.u.).

For the sequence “ACGTGGAGTCACGTGACTGGGCCGTGCCACTTTTTTTTATCGGAGTCACCTAGTGCAG”, the binding signal was 9360 fluorescence intensity (a.u.).

In the case of “CCCGTCACCCGTCACCTTGTCCACGCGCGGCGCGGCTACACGGAGTCACCTAGTGCAG”, the binding signal is 13100 fluorescence intensity (a.u.).

With “TTCCTTTTGCTGGGATTGGTCTCTCATGAAGATGAGTTCACGGAGTCACCTAGTGCAG”, the binding signal was 8850 fluorescence intensity (a.u.).

As to “ATTCCCTGTCCACGTTCGTGTGTGTTCTGTGTTGTGTTGCCGGAGTCACCTAGTGCAG”, the binding signal was 10900 fluorescence intensity (a.u.).

Regarding “CACTATTCACGTTTAACGTTTGACCGTTCTTCTTATTTGACGGAGTCACCTAGTGCAG”, the binding signal is 10300 fluorescence intensity (a.u.).

For the sequence “CCCTAGCCCAAACTCCATCCACTCCATCCACTGTGTCGCCCGGAGTCACCTAGTGCAG”, the binding signal is 10900 fluorescence intensity (a.u.).

For “ATCATCCAAATTGTTGCTGAGGGGCTTGATTTATTGGGGTCGGAGTCACCTAGTGCAG”, the binding signal is 8960 fluorescence intensity (a.u.).

As to “ACTATAATTATGTTTTGTGGGTGTGTTTTTATCTTCTTCACGGAGTCACCTAGTGCAG”, the binding signal was 9620 fluorescence intensity (a.u.).

On to “CACCCCGGGACCCTAATTCATTGATCCTCCGCCGAAGTTTCGGAGTCACCTAGTGCAG”, for which the binding signal was 9160 fluorescence intensity (a.u.).

As to “AATTGTCGCACCGATGCCGCTATGAGCGTTTGACCATTCGCGGAGTCACCTAGTGCAG”, the binding signal is 9160 fluorescence intensity (a.u.).

On to “CATCCTCAATTAATTGGACATTCTATCTGTACGTGTACATCGGAGTCACCTAGTGCAG”, for which the binding signal is 9460 fluorescence intensity (a.u.).

Take “GGTTTTGTTAGTTCAAGGACGTCCGGTATCTGGTTTTGCGCGGAGTCACCTAGTGCAG”: the binding signal was 8160 fluorescence intensity (a.u.).

On to “TGGAGGGGTTTTCAAAATATCCGGTATCGCGGTTGAGTGACGGAGTCACCTAGTGCAG”, for which the binding signal is 11800 fluorescence intensity (a.u.).

For “GATTCCACTGCCTGCCAAGTCCATACCTTTGGGCCGGCCCCGGAGTCACCTAGTGCAG”, the binding signal is 8030 fluorescence intensity (a.u.).

Turning to “CCCTAGCAGATGACCGCCTTCCGTACAACATTAACTCCACCGGAGTCACCTAGTGCAG”, the binding signal is 9740 fluorescence intensity (a.u.).

As for “AGTATTTTATTTCTTACTACCCACTTTATATGCACATTGTCGGAGTCACCTAGTGCAG”, the binding signal is 8400 fluorescence intensity (a.u.).

As to “CATCTGCCTCGCTTTCCCACACTAACGCCAACCCATCTCCCGGAGTCACCTAGTGCAG”, the binding signal is 13100 fluorescence intensity (a.u.).

On to “CTAGTTCATGTGCCACACCTATTTTTTTTTTCGGTCGTCCCGGAGTCACCTAGTGCAG”, for which the binding signal is 9380 fluorescence intensity (a.u.).

For the sequence “GCCTCTCCTCTCGGTCTCGGGTCGTTTCTTTCTTGTCCACCGGAGTCACCTAGTGCAG”, the binding signal was 8660 fluorescence intensity (a.u.).

Take “CACAAAATTCCAACTTTTCCGTCACATCATTTTATTTTTACGGAGTCACCTAGTGCAG”: the binding signal is 8610 fluorescence intensity (a.u.).

Consider “GAGGCGGAGAGCGAGAGGCGAGAGGGGACTGGGGAGGGGACGGAGTCACCTAGTGCAG”, for which the binding signal is 9080 fluorescence intensity (a.u.).

Turning to “AGGGGCTGTTTGGTTTCCACCTTGTCACATCGGATGTTTACGGAGTCACCTAGTGCAG”, the binding signal is 9140 fluorescence intensity (a.u.).

Regarding “ACGGCACATATCTCACAATCTGATACCCAGCGGCCACAAACGGAGTCACCTAGTGCAG”, the binding signal was 8540 fluorescence intensity (a.u.).

For “ACCCCACACTCAATCCTTACGAAATCCCATTTGATTTTGTCGGAGTCACCTAGTGCAG”, the binding signal was 9150 fluorescence intensity (a.u.).

“ACTTCCAACTCCGCCGCCCATTCAAAATCTCCGCCACCTCCGGAGTCACCTAGTGCAG”: the binding signal was 9040 fluorescence intensity (a.u.).

“GTCCCGATCCGATACAGTATGTCTTTCGCCGCCGCCTCTGCGGAGTCACCTAGTGCAG”: the binding signal was 9350 fluorescence intensity (a.u.).
